Measurements taken from PubChem BioAssay AID1671190 (National Center for Advancing Translational Sciences (NCATS), 2021).
The campaign covered roughly 580,000 compounds. About 6,100 (1.1%) were called active. This list was built around the results that the source calls inconclusive (neither active nor inactive); the mix of calls is not that of the screen. Calls follow the shape of the dose curve; as a rule, active = well fitted inhibition curve with a large enough effect; inconclusive = small, poorly fitted or top-dose-only effect, or another doubt; inactive = no such curve, though single readings can be large or run the other way. Potencies of inconclusive entries are doubtful fits and often do not repeat.
% is scaled to controls: 0 for no effect and ±100 for the full control effect; potency is read from the fitted curve at half-maximal effect.

The chains behind the UniProt entries cited, without tags or fusion partners. Where a name states a change or a piece, a line headed by the entry shows the natural chain unless it says otherwise.
UniProt P18054: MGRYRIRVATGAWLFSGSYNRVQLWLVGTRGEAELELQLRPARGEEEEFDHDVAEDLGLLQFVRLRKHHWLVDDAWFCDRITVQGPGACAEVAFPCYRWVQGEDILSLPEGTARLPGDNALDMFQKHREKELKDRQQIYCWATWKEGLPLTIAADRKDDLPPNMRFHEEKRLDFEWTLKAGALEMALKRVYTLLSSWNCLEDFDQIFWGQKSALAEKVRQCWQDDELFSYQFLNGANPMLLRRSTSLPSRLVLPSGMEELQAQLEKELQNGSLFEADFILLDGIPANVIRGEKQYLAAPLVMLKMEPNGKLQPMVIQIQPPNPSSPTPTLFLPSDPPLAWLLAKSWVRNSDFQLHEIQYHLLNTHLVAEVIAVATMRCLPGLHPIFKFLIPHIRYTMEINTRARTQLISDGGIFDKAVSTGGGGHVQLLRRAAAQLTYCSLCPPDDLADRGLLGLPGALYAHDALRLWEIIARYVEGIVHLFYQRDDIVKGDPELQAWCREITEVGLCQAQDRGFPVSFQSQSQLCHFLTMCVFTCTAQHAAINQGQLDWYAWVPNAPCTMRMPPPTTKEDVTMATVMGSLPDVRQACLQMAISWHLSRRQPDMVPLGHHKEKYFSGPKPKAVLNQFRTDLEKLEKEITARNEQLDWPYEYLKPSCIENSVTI

What follows are compounds tested against Polyunsaturated fatty acid lipoxygenase ALOX12 (Homo sapiens) (UniProt P18054) (assay: Primary qHTS assay for inhibitors of human arachidonate 12S-lipoxygenase (ALOX12): Round 2). Conditions: purified 12hLO, xylenol orange hydroperoxide absorbance; activity change, negative = inhibition: at 108 µM (top of the series) unless noted.
Summary of the method: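 Purified human 12hLO (150 nM final) in 25 mM Hepes, 0.01% Triton X-100, pH 7.0 was preincubated 15 min at room temperature with compound. Then 40 uM arachidonic acid was added, 30 min. Hydroperoxide was read by Fe-XO absorbance ratio 573/405 nm.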
With COc1ccc(CN2CCC(N3CC4CCCN4C3=O)CC2)cc1 (stereo not drawn) the Potency was inconclusive: 44.7 µM [inhibitor, full curve, poor fit].
With FC(F)(F)c1ccc(-c2n[nH]c(=S)o2)nc1 the Potency was inconclusive: 7.08 µM [inhibitor, full curve, poor fit].
CCCCSCCCNC(=O)c1cn(CC)c2ccc(S(=O)(=O)N3CCOCC3)cc2c1=O was tested, and the Potency was inconclusive: 56.2 µM [inhibitor, partial curve, poor fit].
In the case of COc1ccccc1-n1c(=O)[nH]c2cccnc21, the Potency was inconclusive: 5.01 µM [inhibitor, full curve].
For CC1=CC(c2ccccc2)NC(=S)N1 (stereo not drawn), the Potency was “inactive”.
With O=C(N/N=C/c1cccc([N+](=O)[O-])c1O)C(O)(c1ccccc1)c1ccccc1 the Potency was “inactive”.
With CS(=O)(=O)c1cnc(NCCCc2ccccc2)nc1C1CCCNC1 (stereo not drawn) the Potency was inconclusive: 14.1 µM [inhibitor, full curve].
With Nc1c2c(nc3ccc(Br)cc13)N(c1ccccc1)CC2 the Potency was inconclusive: 1.26 µM [inhibitor, full curve].
In the case of CCc1sc(NC(=O)CC[C@H]2NC(=O)c3ccccc3NC2=O)nc1C(=O)OC, the Potency was “inactive”.
With O=C(CSc1nc(=O)[nH]c2c1CCC2)Nc1cccc(C(F)(F)F)c1 the Potency was inconclusive: 158 µM [inhibitor, partial curve, poor fit].
COC(=O)C1=CNC=C(C(=O)OC)C1c1cccc(Br)c1 was tested, and the Potency was inconclusive: 50.1 µM [inhibitor, partial curve, poor fit].
For O=C(Cc1csc2nc(-c3ccc(Cl)cc3)cn12)NCCc1ccccc1, the Potency was inconclusive: 17.8 µM [inhibitor, partial curve, poor fit].
With CCOc1ccc(-n2cc(-c3ccccc3)c3c(=O)[nH]cnc32)cc1 the Potency was inconclusive: 89.1 µM [inhibitor, single point].
CC(=O)Nc1ccc(OC(=O)c2cc3cc(Br)cc(Br)c3oc2=O)cc1 was tested, and the Potency was inconclusive: 50.1 µM [inhibitor, partial curve, poor fit].
For O=Cc1ccc(-c2ccc(F)cc2)o1, the Potency was “inactive”.
For Nc1ccc(N=Nc2ccccc2)c2ccccc12, the Potency was inconclusive: 0.398 µM [inhibitor, full curve, poor fit].
In the case of CCOc1ccc(CN2C[C@H](N(C)C)C[C@H]2C(=O)OC)cc1Cl, the Potency was inconclusive: 20 µM [inhibitor, full curve, poor fit].
O=Nc1ccc(O)c2ncccc12 was tested, and the Potency was inconclusive: 0.447 µM [inhibitor, full curve, poor fit].
In the case of CCCCCCNC(=S)Nc1ccccc1, the Potency was inconclusive: 50.1 µM [inhibitor, partial curve].
With Cc1ccccc1CNC(=O)CCn1ccn2nc3c(c2c1=O)CCCC3 the Potency was “inactive”.
With COc1ccc(NC2C=CS(=O)(=O)C2)cc1 (stereo not drawn) the Potency was inconclusive: 35.5 µM [inhibitor, partial curve, poor fit].
For C/C(CCc1oc2ccc(Br)cc2c1-c1ccc(C)o1)=N\O, the Potency was active: 11.2 µM.
COC(=O)/C(=N\Nc1ccccc1)Sc1nnc(-c2ccc(OC)cc2)n1C was tested, and the Potency was inconclusive: 50.1 µM [inhibitor, partial curve, poor fit].
In the case of COc1ccc(C(CNC(=O)COc2cc(C)c(Cl)c(C)c2)N2CCCCC2)cc1 (stereo not drawn), the Potency was inconclusive: 44.7 µM [inhibitor, partial curve, poor fit].
CC(C)C(C)(C)C(C)(C)C(C)(C)S was tested, and the Potency was inconclusive: 26.1 µM [inhibitor, single point].
For c1ccc(CNc2nc(-c3ccoc3)nc3ccccc23)cc1, the Potency was active: 15.8 µM.
For Clc1cnc(N/N=C/c2ccc(Br)cc2)c(Cl)c1, the Potency was inconclusive: 31.6 µM [inhibitor, partial curve, poor fit].
In the case of CN1CCC(N(C)C(=O)c2ccc(Cl)c(S(=O)(=O)N(C)c3ccc(Cl)cc3)c2)CC1, the Potency was inconclusive: 63.1 µM [inhibitor, partial curve, poor fit].
COc1ccc2nc(N/C(N)=N/C(=S)Nc3ccccc3)nc(C)c2c1 was tested, and the Potency was inconclusive: 44.7 µM [inhibitor, partial curve, poor fit].
O=C(O)COc1ccccc1/C=N/NC(=O)c1cccc(S(=O)(=O)N2CCOCC2)c1 was tested, and the Potency was “inactive”.
Cn1c(SCC(=O)Nc2ccc(Br)cn2)nnc1-c1cccs1 was tested, and the Potency was “inactive”.
For CN(CCc1noc(COc2cccc(F)c2)n1)C(=O)c1ccccc1C(F)(F)F, the Potency was inconclusive: 35.5 µM [inhibitor, partial curve, poor fit].
In the case of Cc1ccc(S(=O)(=O)N2[C@@H](c3ccc(Br)cc3)C(C(=O)O)=CC[C@H]2c2cccc(C)c2)cc1, the Potency was inconclusive: 100 µM [inhibitor, partial curve, poor fit].
With Fc1ccc(-c2cc(-c3cn[nH]c3)c3cncn3c2)cc1 the Potency was inconclusive: 79.4 µM [inhibitor, full curve].
O=S(=O)(NCC[C@@H]1CC[C@H](NS(=O)(=O)c2cccc(F)c2)[C@@H](CO)O1)c1cccc(F)c1 was tested, and the Potency was inconclusive: 56.2 µM [inhibitor, partial curve, poor fit].
For COc1ccc(N2C(=O)C(C)(C)CS2(=O)=O)cc1S(=O)(=O)NCCc1ccccc1F, the Potency was “inactive”.
For CC(=O)N1CCc2c(sc(NC(=O)c3ccc([N+](=O)[O-])o3)c2C#N)C1, the Potency was inconclusive: 100 µM [inhibitor, partial curve, poor fit].
In the case of CN1CCC(N(C)C(=O)Cc2ccccc2[N+](=O)[O-])CC1, the Potency was “inactive”.
For COC(=O)C1=C(C)N(C)C(=S)NC1c1ccc(Cl)cc1 (stereo not drawn), the Potency was inconclusive: 50.1 µM [inhibitor, partial curve, poor fit].
Cc1ccc(N2CCN(C(C(=O)O)c3cn(CC(=O)O)c4cc(F)ccc34)CC2)c(C)c1 (stereo not drawn) was tested, and the Potency was “inactive”.
With Cn1nc(C(F)(F)F)c2cc(NC(=O)OCC(C)(C)C)sc21 the Potency was inconclusive: 20 µM [inhibitor, partial curve, poor fit].
With CCC1Oc2ccc(NC(=O)c3ccccc3F)cc2CN(Cc2ccc(OC)cc2)C1=O (stereo not drawn) the Potency was “inactive”.
For O=C1Cc2c(-c3ccoc3)n[nH]c2CN1Cc1ccccc1, the Potency was inconclusive: 14.1 µM [inhibitor, full curve].
With Cc1ccccc1-n1nc(C)c(CCC(=O)NCC2CC2)c1Oc1ccccc1 the Potency was “inactive”.
In the case of COc1ccc(-c2nc3oc4cc(OC)ccc4c(=O)c3c(=O)n2Cc2ccco2)cc1, the Potency was inconclusive: 28.2 µM [inhibitor, partial curve, poor fit].
For O=C(CSCc1ccc(Cl)cc1)Nc1ccc(O)cc1C(=O)O, the Potency was active: 6.31 µM.
With COc1ccc(NC(=O)CCCC2=NS(=O)(=O)c3ccccc3N2)cc1 the Potency was inconclusive: 141 µM [inhibitor, single point].
With O=C(N/N=C/c1ccc(N2CCOCC2)o1)c1cccc([N+](=O)[O-])c1 the Potency was “inactive”.
For C=CCOc1c(Cl)cc(CNCCCN2CCOCC2)cc1OC, the Potency was inconclusive: 28.2 µM [inhibitor, partial curve, poor fit].
O=C(Nc1nsc(-c2ccccc2)n1)c1ccncc1 was tested, and the Potency was inconclusive: 8.91 µM [inhibitor, full curve, poor fit].
With O=C(c1ccc(Cn2ccnc2)o1)N1CC2CC(C1)[C@H]1CCCC(=O)N1C2 (stereo partly drawn) the Potency was “inactive”.
In the case of COc1cccc(CNC(=O)CCc2c(C)c3cc4c(C)coc4cc3oc2=O)c1, the Potency was “inactive”.
For OCCN1CCN(CCCN2c3ccccc3Sc3ccc(Cl)cc32)CC1, the Potency was inconclusive: 79.4 µM [inhibitor, partial curve, poor fit].
CC(NC(=O)CSc1nnc(-c2cccnc2)n1-c1ccccc1)c1ccc2c(c1)OCCO2 (stereo not drawn) was tested, and the Potency was “inactive”.
For O=C(Nc1ccccc1)NN(C(=O)CCl)c1ccccc1, the Potency was “inactive”.
CN1C(=O)c2ccc(NC(=O)Cn3nc4c(cc3=O)CCCC4)cc2C1=O was tested, and the Potency was “inactive”.
In the case of Cc1ccc(OCC(=O)NNc2c3ccccc3nc3ccccc23)cc1, the Potency was “inactive”.
For COc1ccc(CN2C[C@H]3CN(Cc4ccc(Cl)cc4)CCN3C2=O)cc1, the Potency was inconclusive: 28.2 µM [inhibitor, full curve].
In the case of CC(NS(=O)(=O)c1ccc(F)cc1F)C(=O)N1CCCC1 (stereo not drawn), the Potency was inconclusive: 35.5 µM [inhibitor, partial curve, poor fit].
In the case of COc1ccccc1-c1cc(C(=O)Nc2c(C)nn(Cc3ccc(Cl)cc3)c2C)no1, the activity change, negative = inhibition was inconclusive: -38.8% [inhibitor].
CCCCN(CCCNC(=O)c1cc(Nc2ccc(OC)cc2OC)nc2ccccc12)Cc1ccccc1 was tested, and the Potency was inconclusive: 158 µM [inhibitor, partial curve, poor fit].
In the case of Cc1ccc2nc(CSc3ccc4ccccc4n3)cc(=O)n2c1, the Potency was inconclusive: 50.1 µM [inhibitor, partial curve, poor fit].
For O=C1c2ccccc2C(=O)N1CCCCCCN1C(=O)c2ccccc2C1=O, the Potency was active: 35.5 µM.
CCCCn1c(=O)c2c(O)cc(=O)oc2c2ccccc21 was tested, and the Potency was inconclusive: 25.1 µM [inhibitor, partial curve, poor fit].
O=C(OCC(=O)N1CCCCC1)c1ccc2c(c1)C(=O)N(Cc1ccco1)C2=O was tested, and the Potency was inconclusive: 112 µM [inhibitor, single point].
O=C(c1cc2ccccc2[nH]1)N1CCC2(C1)NC(=O)N(Cc1ccc(F)cc1)C2=O (stereo not drawn) was tested, and the Potency was “inactive”.
For CN(C)c1ccc(/C=C/C(=O)c2cccnc2)cc1, the Potency was “inactive”.
In the case of O=S(=O)(Nc1nc2ccccc2nc1Nc1ccc2c(c1)OCO2)c1cc(Cl)ccc1Cl, the Potency was inconclusive: 11.2 µM [inhibitor, partial curve, poor fit].
